Library screen at single concentrations

The chains behind the UniProt entries cited, without tags or fusion partners. Residues count along the entry.
UniProt P9WPC5, whole entry: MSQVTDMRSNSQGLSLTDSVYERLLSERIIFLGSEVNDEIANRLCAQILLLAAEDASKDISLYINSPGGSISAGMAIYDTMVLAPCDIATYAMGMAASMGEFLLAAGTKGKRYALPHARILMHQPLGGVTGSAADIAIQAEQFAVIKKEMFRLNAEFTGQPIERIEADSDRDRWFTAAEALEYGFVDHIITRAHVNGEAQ
UniProt P9WPC3, whole entry partner: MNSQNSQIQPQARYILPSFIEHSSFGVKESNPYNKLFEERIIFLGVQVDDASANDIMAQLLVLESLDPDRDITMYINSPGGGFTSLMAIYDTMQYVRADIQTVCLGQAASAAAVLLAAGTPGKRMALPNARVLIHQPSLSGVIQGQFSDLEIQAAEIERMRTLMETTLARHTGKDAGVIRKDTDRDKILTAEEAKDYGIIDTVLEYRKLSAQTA
UniProt P9WNZ1, whole entry: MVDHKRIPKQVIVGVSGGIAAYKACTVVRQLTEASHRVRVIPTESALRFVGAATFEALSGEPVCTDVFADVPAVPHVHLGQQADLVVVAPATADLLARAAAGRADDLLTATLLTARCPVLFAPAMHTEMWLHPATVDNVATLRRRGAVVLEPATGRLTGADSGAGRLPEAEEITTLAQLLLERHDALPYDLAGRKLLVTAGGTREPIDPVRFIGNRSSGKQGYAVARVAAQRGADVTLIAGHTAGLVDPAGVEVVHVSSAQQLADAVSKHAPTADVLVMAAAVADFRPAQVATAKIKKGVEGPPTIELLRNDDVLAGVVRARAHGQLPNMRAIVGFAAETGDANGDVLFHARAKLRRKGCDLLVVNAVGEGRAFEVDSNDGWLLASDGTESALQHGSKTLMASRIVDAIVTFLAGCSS
UniProt Q8IDJ8, 1-583: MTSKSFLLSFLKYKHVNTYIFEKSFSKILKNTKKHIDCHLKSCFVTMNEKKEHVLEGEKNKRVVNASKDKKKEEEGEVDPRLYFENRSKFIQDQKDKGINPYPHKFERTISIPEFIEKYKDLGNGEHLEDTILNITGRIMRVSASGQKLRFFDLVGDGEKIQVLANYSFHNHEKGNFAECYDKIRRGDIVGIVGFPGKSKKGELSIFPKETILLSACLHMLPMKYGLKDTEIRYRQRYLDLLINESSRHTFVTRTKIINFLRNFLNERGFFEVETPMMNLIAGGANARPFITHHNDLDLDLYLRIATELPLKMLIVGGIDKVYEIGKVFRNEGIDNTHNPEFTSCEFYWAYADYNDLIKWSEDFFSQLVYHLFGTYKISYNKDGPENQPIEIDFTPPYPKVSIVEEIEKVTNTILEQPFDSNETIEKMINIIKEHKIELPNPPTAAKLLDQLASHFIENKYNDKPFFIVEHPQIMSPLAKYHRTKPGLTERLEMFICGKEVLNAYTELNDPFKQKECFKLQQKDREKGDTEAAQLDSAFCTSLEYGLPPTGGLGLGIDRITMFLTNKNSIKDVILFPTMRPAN
UniProt Q4DA54, 1-478: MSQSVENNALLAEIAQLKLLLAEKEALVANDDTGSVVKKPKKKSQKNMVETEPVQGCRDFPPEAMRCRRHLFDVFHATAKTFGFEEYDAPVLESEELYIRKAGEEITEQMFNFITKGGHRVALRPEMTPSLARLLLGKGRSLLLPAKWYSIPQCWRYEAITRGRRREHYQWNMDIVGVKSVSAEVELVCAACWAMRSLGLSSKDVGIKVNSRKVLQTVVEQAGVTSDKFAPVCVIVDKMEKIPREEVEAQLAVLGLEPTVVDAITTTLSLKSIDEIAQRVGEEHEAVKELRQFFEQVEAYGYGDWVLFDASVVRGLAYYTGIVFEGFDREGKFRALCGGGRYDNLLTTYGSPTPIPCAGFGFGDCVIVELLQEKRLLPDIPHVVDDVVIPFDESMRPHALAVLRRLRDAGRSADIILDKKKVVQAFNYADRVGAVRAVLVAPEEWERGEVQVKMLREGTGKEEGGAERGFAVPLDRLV
UniProt I6X8D2, whole entry: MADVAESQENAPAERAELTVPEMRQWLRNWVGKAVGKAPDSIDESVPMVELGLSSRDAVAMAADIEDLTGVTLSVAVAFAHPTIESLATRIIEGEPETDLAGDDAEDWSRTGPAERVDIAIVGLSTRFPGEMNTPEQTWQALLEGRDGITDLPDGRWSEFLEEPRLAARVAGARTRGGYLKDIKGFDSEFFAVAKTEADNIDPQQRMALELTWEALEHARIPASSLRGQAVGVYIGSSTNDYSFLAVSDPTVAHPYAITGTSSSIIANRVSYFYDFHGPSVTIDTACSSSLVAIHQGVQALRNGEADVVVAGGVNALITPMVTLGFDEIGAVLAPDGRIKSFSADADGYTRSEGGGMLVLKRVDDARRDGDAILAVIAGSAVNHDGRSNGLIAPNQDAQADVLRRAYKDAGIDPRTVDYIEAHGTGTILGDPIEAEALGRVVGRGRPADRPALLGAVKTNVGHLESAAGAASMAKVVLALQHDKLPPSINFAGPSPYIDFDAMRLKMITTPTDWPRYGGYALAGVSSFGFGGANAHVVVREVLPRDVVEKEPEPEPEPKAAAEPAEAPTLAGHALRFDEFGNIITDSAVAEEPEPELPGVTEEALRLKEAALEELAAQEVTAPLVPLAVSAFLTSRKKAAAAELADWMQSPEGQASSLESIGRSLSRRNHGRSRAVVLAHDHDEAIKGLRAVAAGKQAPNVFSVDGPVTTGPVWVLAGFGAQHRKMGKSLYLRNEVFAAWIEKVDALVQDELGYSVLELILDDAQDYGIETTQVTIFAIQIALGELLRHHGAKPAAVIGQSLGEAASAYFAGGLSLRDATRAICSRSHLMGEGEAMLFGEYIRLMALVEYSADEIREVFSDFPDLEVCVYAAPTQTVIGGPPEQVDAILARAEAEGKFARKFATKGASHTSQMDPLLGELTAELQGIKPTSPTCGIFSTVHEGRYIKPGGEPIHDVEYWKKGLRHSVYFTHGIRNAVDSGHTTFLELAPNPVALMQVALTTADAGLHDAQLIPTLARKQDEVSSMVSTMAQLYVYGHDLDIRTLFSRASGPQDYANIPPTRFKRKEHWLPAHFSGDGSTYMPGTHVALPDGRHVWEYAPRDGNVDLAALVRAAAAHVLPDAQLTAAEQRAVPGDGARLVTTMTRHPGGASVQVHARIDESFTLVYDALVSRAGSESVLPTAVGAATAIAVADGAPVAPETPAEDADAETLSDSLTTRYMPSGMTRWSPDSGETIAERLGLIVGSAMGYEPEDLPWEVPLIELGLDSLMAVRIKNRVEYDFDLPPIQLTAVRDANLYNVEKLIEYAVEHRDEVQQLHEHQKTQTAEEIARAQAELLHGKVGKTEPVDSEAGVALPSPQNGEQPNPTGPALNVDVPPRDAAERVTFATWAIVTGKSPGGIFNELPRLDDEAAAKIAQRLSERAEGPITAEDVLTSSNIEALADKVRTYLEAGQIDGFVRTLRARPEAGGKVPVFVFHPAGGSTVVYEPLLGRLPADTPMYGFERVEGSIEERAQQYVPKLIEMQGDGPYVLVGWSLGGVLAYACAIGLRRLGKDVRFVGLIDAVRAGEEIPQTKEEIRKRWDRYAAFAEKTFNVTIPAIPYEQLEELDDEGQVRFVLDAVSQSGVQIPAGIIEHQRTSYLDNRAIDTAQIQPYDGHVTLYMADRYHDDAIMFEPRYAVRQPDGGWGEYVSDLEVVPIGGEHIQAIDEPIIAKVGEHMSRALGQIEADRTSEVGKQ

The values are deposited in ChEMBL (CHEMBL3988442, “University of Dundee, Small-Polar-MMV Screening Library” (2021)).

ClpP1P2: 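ClpP1P2, Mycobacterium tuberculosis (UniProt P9WPC5 and UniProt P9WPC3). Protease assay of ClpP1P2, read by the AMC dye that it sets free. Concentration: 50 µM. Direction is inferred from only a few compounds that gave an IC50; most scored high, so higher reads as stronger inhibition. Most other retested compounds had strongly negative values. Size under these conditions: about 69,000 compounds, about 10 of them at 50% or above in at least one test.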
CoaBC: 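Coenzyme A biosynthesis protein CoaBC, Mycobacterium tuberculosis (UniProt P9WNZ1). Enzyme assay of CoaBC with a phosphate dye (Biomol Green) read at 650 nm. Compounds at 30 µM. Higher reads as stronger inhibition, judged from the few compounds that gave an IC50. Most strong results did not repeat in a second test. Size under these conditions: about 67,000 compounds, about 40 of them at 50% or above in at least one test.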
PfKRS1: 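Enzyme assay of the cytosolic lysyl-tRNA synthetase in 384-well plates, read by luminescence. Target: Lysine-tRNA ligase, Plasmodium falciparum 3D7 (UniProt Q8IDJ8). Tested at 30 µM. Higher reads as stronger inhibition, judged from the few compounds that gave an IC50. Of about 69,000 compounds tested this way, about 49 (0.071%) reached 50% or more in at least one test.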
TcHisRS: 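Enzyme assay of histidyl-tRNA synthetase; the read-out is not stated. Target: Histidine-tRNA ligase, Trypanosoma cruzi CL Brener (UniProt Q4DA54). Tested at 30 µM. Higher reads as stronger inhibition (inferred: compounds with an IC50 in retests scored well above the rest). About 69,000 compounds were tested under these conditions; 0.045% (about 31) showed 50% or more at least once.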
Pks13 thioesterase: 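Polyketide synthase Pks13, Mycobacterium tuberculosis (UniProt I6X8D2). Enzyme assay of the thioesterase domain of polyketide synthase 13; the read-out is not stated. Concentration: 30 µM. Higher reads as stronger inhibition (inferred from which compounds were picked for retests). Size under these conditions: about 67,000 compounds, about 300 of them at 50% or above in at least one test.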

Results are given as percent effect.
The controls that fix the scale are not given in the record; negative values are as filed.
Compounds were drawn at random from those tested, without regard to their results.
A dash means the value is not listed here; it may have been measured.

structure | ClpP1P2 | CoaBC | PfKRS1 | TcHisRS | Pks13 thioesterase
Cc1ccc(CC(=O)N2CCCC(c3n[nH]c4nccnc34)C2)cc1 (stereo unspecified) | 3.759% | 3.922% | 12.16% | 13.83% | -0.3321%
Cc1cccc(CN2C(=O)CCC23CCN(c2ccccn2)CC3)n1 | -13.33% | 3.765% | -0.7659% | 3.365% | -0.3218%
CNS(=O)(=O)c1cccc(C(C)NCc2cccc(OC)c2)c1 (stereo unspecified) | -2.702% | -3.934% | -3.769% | 0.5348% | -16.99%
COCC(=O)N1CCC2(CC1)CC(=O)N(Cc1ccc(Cl)cc1)C2 | -17.38% | -2.36% | 5.993% | -5.797% | -10.89%
COc1c(CNCc2ccc(C(=O)NC3CC3)cc2)c(C)nn1C | 9.6% | 8.094% | 5.299% | 1.88% | -9.997%
O=C(CCn1cc(Cl)cn1)Nc1nncs1 | -7.736% | 4.481% | -2.732% | 1.587% | 26.02%
CC(C(N)=O)N1CCN(c2ncc(Cl)cn2)CC1 (stereo unspecified) | -2.367% | -2.166% | 3.69% | 10.5% | -36.6%
O=C(C1CCOCC1)N(CCc1ccccc1)C1CCOC1 (stereo unspecified) | -8.736% | 8.943% | 3.874% | -0.9804% | 7.556%
CC(C)c1nc2n(n1)CC(NCc1ccncc1)CC2 (stereo unspecified) | 2.882% | 5.263% | -1.033% | 2.174% | -24.24%
O=C(NC(c1ccc(Cl)cc1)c1cccnc1)C1CC1 (stereo unspecified) | -8.006% | 3.995% | 3.815% | 11.88% | -10.22%
O=C(O)[C@@H]1CN(C(=O)CCN2CCCCC2)C[C@H]1c1ccccc1 | 5.803% | 7.856% | 4.981% | 4% | -17.92%
C[S+]([O-])c1nncn1CCCc1ccc(Cl)cc1 (stereo unspecified) | -2.325% | 0.7371% | -0.01192% | 6.173% | 17.46%
CCC(C)NC(=O)NCCC(=O)N1CCN(c2ccccn2)CC1 (stereo unspecified) | -6.365% | 1.564% | 4.803% | 6.533% | -6.821%
CCc1ccc(C(=O)N(CC(F)(F)F)C2CCCOC2)o1 (stereo unspecified) | 18.06% | -1.261% | 5.749% | 4.444% | 2.261%
CC1(C)CN(Cc2csc(CS(C)(=O)=O)n2)Cc2ccccc21 | -2.734% | -2.616% | 3.963% | 11.8% | -28.12%
O=C(CCN1CCCC1)Nc1c2c(cc3c1CCC3)CCC2 | -2.37% | -8.054% | 0.7088% | 3.093% | -3.045%
CC(C)C(CNC(=O)Nc1cn[nH]c1)N1CCOCC1 (stereo unspecified) | -30.16% | 3.655% | 1.747% | 4.956% | -22.02%
Cc1noc(C)c1CNC(=O)N1CCC(CO)CC1 | 2.535% | 7.957% | 3.556% | -2.479% | -19.18%
CC(C)c1nccn1C1CCCN(C(=O)CCc2cscn2)C1 (stereo unspecified) | -8.521% | 3.259% | 1.164% | 6.358% | -9.114%
CC(=O)NC(Cc1c[nH]c2cc(F)ccc12)C(=O)Nc1nonc1C (stereo unspecified) | 3.274% | - | -2.24% | 4.459% | 17.94%
Cc1cc(F)cc2c(N3CCS(=O)(=O)CC3)c(C#N)cnc12 | -3.609% | 2.724% | 5.183% | 11.67% | 0.7569%
COc1ccc(CN2CCC[C@@H]3CN(C(=O)c4ccco4)C[C@@H]32)cc1 | 7.161% | -0.1287% | 9.285% | 8.197% | -2.877%
CN(C(=O)Nc1cccc(C#N)c1)C1CCN(c2ccccn2)CC1 | 6.524% | -6.855% | 4.845% | 10.92% | -12.68%
C1CC(CN2CCCCC2C2OCCO2)C1 (stereo unspecified) | -8.623% | 3.802% | 0.3242% | 6% | 3.686%
CCn1nnnc1-c1cccc(NC(=O)CCOC(C)C)c1 | 6.181% | 3.984% | 0.8115% | 6.316% | -31.04%
CC1CCCCN1C(=O)c1nc2c(n1C(C)C)CCN(C)C2 (stereo unspecified) | -1.562% | - | 6.336% | -2.532% | -25.14%
CCc1ccc(C(=O)N2CCCC(CNS(C)(=O)=O)C2)o1 (stereo unspecified) | -23.76% | 6.868% | 0.5434% | 3.198% | 0.9689%
Cn1cnc(S(=O)(=O)N2C[C@@H]3CC[C@H](C2)N(Cc2ccccn2)C3)c1 | -19.98% | 5.912% | 4.821% | 3.571% | -5.098%
c1ccc(-c2nc3c(c(NCCCn4cncn4)n2)CCNCC3)nc1 | -3.156% | 2.233% | -4.617% | 8.671% | -10.28%
O=C(Nc1ccc(F)cc1-c1nc(C2CC2)no1)N1CC[C@@H](O)C1 | -3.616% | 0.3645% | 7.155% | 11.88% | 13.27%
Cc1nn(C)c(Cl)c1C(=O)NCC1(C(N)=O)CCOCC1 | -5.575% | 8.414% | -0.1331% | 12.06% | 1.29%
CN1C(=O)CO[C@H](c2ccc(NC(=O)c3cccnc3)cc2)[C@H]1CO | -7.994% | 2.87% | 1.311% | 6.522% | -
Cc1nc(CN2CCCC(N(C)CCc3ccncc3)C2)no1 (stereo unspecified) | 10.16% | 1.686% | 2.143% | 14.94% | -13.37%
NC(=O)c1csc(N2C[C@@H](CN3CCC(O)CC3)[C@@H](CO)C2)n1 | 6.162% | 0.9709% | 3.461% | 8.04% | -15.15%
Cc1nn(C)cc1-c1ccnc(N2CCCN(CC(C)C)CC2)n1 | -2.727% | -5.051% | 1.173% | 13.13% | -4.024%
c1csc(CCNC2CCc3ncnn3C2)c1 (stereo unspecified) | -7.591% | 6.013% | 4.607% | -1.478% | -7.807%
O=C(C1CCOCC1)N1CCO[C@H]2[C@H](OCC3CC3)CC[C@@H]21 | -6.228% | 3.509% | 2.845% | 0% | 4.549%
CCCOCCN1CCC2(CC1)CC(c1ccccc1)C(=O)N2C (stereo unspecified) | 12.71% | -9.375% | -13.24% | 4.564% | -10.78%
CC(C)(C)c1nnc(CN2CCC(c3cc4ccccc4[nH]3)CC2)o1 | -9.171% | 7.171% | -0.1803% | 4.211% | -16.45%
NCC1[C@H]2CN(Cc3ccccc3F)C[C@@H]12 (stereo partly specified) | -0.6158% | 1.673% | -0.5289% | 7.767% | -34.46%
Cc1c(C(N)=O)sc2nc(C(F)(F)F)ccc12 | 3.232% | 6.341% | -7.325% | 1.299% | 10.25%
CC(C)CCn1nc(CNc2ccc(Br)cc2)nc1O | -13.3% | -0.6329% | 5.075% | 0% | 14.28%
NC(=O)CS(=O)(=O)Cc1csc(-c2ccccc2)n1 | -2.142% | -4.854% | 6.787% | -102.2% | -29.66%
Cc1cnn(CCNCc2c(C(C)C)nn(C)c2Cl)c1 | -1.541% | -2.479% | 0.3431% | 11.67% | -4.175%
Cc1cc(C)n(CC2CCCN2C(=O)c2ccc3nnc(C)n3c2)n1 (stereo unspecified) | -19.34% | 1.305% | 3.561% | 5.65% | -13.81%
COc1ccc(C(=O)Nc2ccccc2-c2ccc(=O)n(C)n2)nn1 | 1.535% | -0.2114% | -1.867% | 2.062% | -24.5%
CC(=O)N1CCC2(CC1)c1ncc(-c3ccccc3)n1CCN2C | -0.6734% | 4.198% | 2.233% | 5.291% | 8.907%
Cc1cccc(CN2CCN(c3ncnc4[nH]cnc34)CC2CCO)n1 (stereo unspecified) | 1.338% | 8.403% | -3.527% | 3.333% | 0.9779%
Cc1ccc(-c2ncc(C(=O)NCCNC(=O)C3CC3)s2)c(C)c1 | -22.71% | 0.8149% | 1.489% | 3.198% | 37.83%
CN1CCCC1CCn1ccnc1-c1nc(-c2ccccc2)no1 (stereo unspecified) | -4.131% | -24.38% | -6.325% | 17.92% | 2.323%
Cc1noc(CC2CCN(C(=O)C(c3ccccc3C)N(C)C)CC2)n1 (stereo unspecified) | -9.683% | -2.751% | 6.355% | -1.288% | -9.742%
Cc1cnn(CC2CCCCN2CCS(C)(=O)=O)c1 (stereo unspecified) | -14.38% | 1.567% | 0.4225% | 1.695% | -18.71%
O=C(NC1(c2nnn(CC3CC3)n2)CCCC1)c1ccccc1 | -14.17% | 1.599% | 4.483% | 3.448% | -1.63%
COCCN1CCN(Cc2cccnc2)[C@H]2CS(=O)(=O)C[C@H]21 | -3.205% | -0.3968% | 1.504% | 6.122% | -15.07%
Cc1nnc(CN(C)CC(=O)N2CCCC(C(F)(F)F)C2)n1C (stereo unspecified) | -6.469% | -0.1227% | -1.039% | -4.938% | -5.742%
Cc1noc(C)c1C(=O)N1CCC2(CCc3ccccc3C(=O)N2)C1 (stereo unspecified) | -8.635% | -7.177% | 0.8685% | 4.981% | 13.34%
c1ccc(Cc2nnc(CN3CCCC3Cn3cccn3)o2)cc1 (stereo unspecified) | -4.742% | 18.64% | 0.5515% | 4.07% | -
CSc1ncccc1C(=O)NCCC(O)c1ccco1 (stereo unspecified) | -2.425% | -2.748% | 4.516% | 1.031% | -6.48%
CCOc1ncccc1CNS(=O)(=O)c1ccc2c(c1)CCC2 | 9.608% | 1.786% | -0.4537% | 2.762% | -3.975%

4 of the entries, repeated:

- CC(C(N)=O)N1CCN(c2ncc(Cl)cn2)CC1 (stereo unspecified) | ClpP1P2: -2.367%; CoaBC: -2.166%; PfKRS1: 3.69%; TcHisRS: 10.5%; Pks13 thioesterase: -36.6%
- CC(C)c1nccn1C1CCCN(C(=O)CCc2cscn2)C1 (stereo unspecified) | ClpP1P2: -8.521%; CoaBC: 3.259%; PfKRS1: 1.164%; TcHisRS: 6.358%; Pks13 thioesterase: -9.114%
- Cc1noc(C)c1CNC(=O)N1CCC(CO)CC1 | ClpP1P2: 2.535%; CoaBC: 7.957%; PfKRS1: 3.556%; TcHisRS: -2.479%; Pks13 thioesterase: -19.18%
- COCC(=O)N1CCC2(CC1)CC(=O)N(Cc1ccc(Cl)cc1)C2 | ClpP1P2: -17.38%; CoaBC: -2.36%; PfKRS1: 5.993%; TcHisRS: -5.797%; Pks13 thioesterase: -10.89%